Here are results for one sequence from patent publication US10584341.

By UniProt entry, the sequences of proteins in these tests, tags left out. Residues count along the entry.
UniProt Q9NZQ7, 19-290: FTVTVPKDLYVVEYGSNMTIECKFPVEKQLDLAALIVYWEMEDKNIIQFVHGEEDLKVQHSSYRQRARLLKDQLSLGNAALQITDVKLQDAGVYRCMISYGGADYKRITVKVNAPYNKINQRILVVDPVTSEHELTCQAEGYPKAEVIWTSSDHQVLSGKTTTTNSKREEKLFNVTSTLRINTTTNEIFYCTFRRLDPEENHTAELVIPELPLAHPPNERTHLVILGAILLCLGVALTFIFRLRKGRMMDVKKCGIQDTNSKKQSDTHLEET

At least one result comes from cells or an extract, where the contact may be indirect.

For this series, the target named is PDL1 (CD274) on HOP92 cells (Homo sapiens) (UniProt Q9NZQ7). Description: flow cytometry. Conditions: 100 nM, stronger signal, text says HOP92 high PDL1 (figure legend says low), protein on the cell surface, protein details: endogenous, single-stranded DNA, variant of AP32 (62-nt).

For “ACGGGCCACATCAACTCATTGATAGACAATGCGTCCACTGCCCGT [aptPDL1 fluorescently labeled]”, the binding result was “binds”.
